Results are given in words; binding and its absence hold for the method and conditions named. In cells and extracts the contact can be indirect. A yes stands for co-enrichment or nearness to the bait. Other partners may have been found.

Protein sequences, listed by entry. Tags and fused reporters are not part of them.
UniProt P30086: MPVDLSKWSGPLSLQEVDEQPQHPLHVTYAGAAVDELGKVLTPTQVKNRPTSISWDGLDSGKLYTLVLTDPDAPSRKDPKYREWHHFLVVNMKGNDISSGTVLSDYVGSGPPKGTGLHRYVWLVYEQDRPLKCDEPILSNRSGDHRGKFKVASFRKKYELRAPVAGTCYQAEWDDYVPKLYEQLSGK

For this assay, the target named is RKIP-3xFLAG fusion protein (UniProt P30086). Description: affinity purification with mass spectrometry; RKIP-3xFLAG from transfected SGC7901 cells held on anti-FLAG M2 magnetic beads (overnight, 4°C); 1D SDS-PAGE, in-gel trypsin digestion, ESI-Q-TOF MS/MS; 3xFLAG (blank carrier) and blank groups as controls; repeated three times.

B1: Rab GDP dissociation inhibitor beta (protein, UniProt P50395 1-445)
chain: MNEEYDVIVLGTGLTECILSGIMSVNGKKVLHMDRNPYYGGESASITPLEDLYKRFKIPGSPPESMGRGRDWNVDLIPKFLMANGQLVKMLLYTEVTRYLDFKVTEGSFVYKGGKIYKVPSTEAEALASSLMGLFEKRRFRKFLVYVANFDEKDPRTFEGIDPKKTTMRDVYKKFDLGQDVIDFTGHALALYRTDDYLDQPCYETINRIKLYSESLARYGKSPYLYPLYGLGELPQGFARLSAIYGGTYMLNKPIEEIIVQNGKVIGVKSEGEIARCKQLICDPSYVKDRVEKVGQVIRVICILSHPIKNTNDANSCQIIIPQNQVNRKSDIYVCMISFAHNVAAQGKYIAIVSTTVETKEPEKEIRPALELLEPIEQKFVSISDLLVPKDLGTESQIFISRTYDATTHFETTCDDIKNIYKRMTGSEFDFEEMKRKKNDIYGED
Turning to B1, the binding entry is “binds”.

B2: Serpin H1 (protein, UniProt P50454 19-418)
chain: AEVKKPAAAAAPGTAEKLSPKAATLAERSAGLAFSLYQAMAKDQAVENILVSPVVVASSLGLVSLGGKATTASQAKAVLSAEQLRDEEVHAGLGELLRSLSNSTARNVTWKLGSRLYGPSSVSFADDFVRSSKQHYNCEHSKINFRDKRSALQSINEWAAQTTDGKLPEVTKDVERTDGALLVNAMFFKPHWDEKFHHKMVDNRGFMVTRSYTVGVMMMHRTGLYNYYDDEKEKLQIVEMPLAHKLSSLIILMPHHVEPLERLEKLLTKEQLKIWMGKMQKKAVAISLPKGVVEVTHDLQKHLAGLGLTEAIDKNKADLSRMSGKKDLYLASVFHATAFELDTDGNPFDQDIYGREELRSPKLFYADHPFIFLVRDTQSGSLLFIGRLVRPKGDKMRDEL
For B2, the binding result is reported as “binds”.

B3: Fructose-bisphosphate aldolase A (protein, UniProt P04075 1-364)
chain: MPYQYPALTPEQKKELSDIAHRIVAPGKGILAADESTGSIAKRLQSIGTENTEENRRFYRQLLLTADDRVNPCIGGVILFHETLYQKADDGRPFPQVIKSKGGVVGIKVDKGVVPLAGTNGETTTQGLDGLSERCAQYKKDGADFAKWRCVLKIGEHTPSALAIMENANVLARYASICQQNGIVPIVEPEILPDGDHDLKRCQYVTEKVLAAVYKALSDHHIYLEGTLLKPNMVTPGHACTQKFSHEEIAMATVTALRRTVPPAVTGITFLSGGQSEEEASINLNAINKCPLLKPWALTFSYGRALQASALKAWGGKKENLKAAQEEYVKRALANSLACQGKYTPSGQAGAAASESLFVSNHAY
Take B3: the binding entry is “binds”.

B4: Annexin A1 (protein, UniProt P04083 1-346)
chain: MAMVSEFLKQAWFIENEEQEYVQTVKSSKGGPGSAVSPYPTFNPSSDVAALHKAIMVKGVDEATIIDILTKRNNAQRQQIKAAYLQETGKPLDETLKKALTGHLEEVVLALLKTPAQFDADELRAAMKGLGTDEDTLIEILASRTNKEIRDINRVYREELKRDLAKDITSDTSGDFRNALLSLAKGDRSEDFGVNEDLADSDARALYEAGERRKGTDVNVFNTILTTRSYPQLRRVFQKYTKYSKHDMNKVLDLELKGDIEKCLTAIVKCATSKPAFFAEKLHQAMKGVGTRHKALIRIMVSRSEIDMNDIKAFYQKMYGISLCQAILDETKGDYEKILVALCGGN
Regarding B4, the binding entry is “binds”.

B5: Tropomodulin-3 (protein, UniProt Q9NYL9 1-352)
chain: MALPFRKDLEKYKDLDEDELLGNLSETELKQLETVLDDLDPENALLPAGFRQKNQTSKSTTGPFDREHLLSYLEKEALEHKDREDYVPYTGEKKGKIFIPKQKPVQTFTEEKVSLDPELEEALTSASDTELCDLAAILGMHNLITNTKFCNIMGSSNGVDQEHFSNVVKGEKILPVFDEPPNPTNVEESLKRTKENDAHLVEVNLNNIKNIPIPTLKDFAKALETNTHVKCFSLAATRSNDPVATAFAEMLKVNKTLKSLNVESNFITGVGILALIDALRDNETLAELKIDNQRQQLGTAVELEMAKMLEENTNILKFGYQFTQQGPRTRAANAITKNNDLVRKRRVEGDHQ
Regarding B5, the binding result is reported as “binds”.

B6: Argininosuccinate synthase (protein, UniProt P00966 1-412)
chain: MSSKGSVVLAYSGGLDTSCILVWLKEQGYDVIAYLANIGQKEDFEEARKKALKLGAKKVFIEDVSREFVEEFIWPAIQSSALYEDRYLLGTSLARPCIARKQVEIAQREGAKYVSHGATGKGNDQVRFELSCYSLAPQIKVIAPWRMPEFYNRFKGRNDLMEYAKQHGIPIPVTPKNPWSMDENLMHISYEAGILENPKNQAPPGLYTKTQDPAKAPNTPDILEIEFKKGVPVKVTNVKDGTTHQTSLELFMYLNEVAGKHGVGRIDIVENRFIGMKSRGIYETPAGTILYHAHLDIEAFTMDREVRKIKQGLGLKFAELVYTGFWHSPECEFVRHCIAKSQERVEGKVQVSVLKGQVYILGRESPLSLYNEELVSMNVQGDYEPTDATGFININSLRLKEYHRLQSKVTAK
Take B6: the binding entry was “binds”.

B7: Aldo-keto reductase family 1 member C3 (protein, UniProt P42330 1-323)
chain: MDSKHQCVKLNDGHFMPVLGFGTYAPPEVPRSKALEVTKLAIEAGFRHIDSAHLYNNEEQVGLAIRSKIADGSVKREDIFYTSKLWSTFHRPELVRPALENSLKKAQLDYVDLYLIHSPMSLKPGEELSPTDENGKVIFDIVDLCTTWEAMEKCKDAGLAKSIGVSNFNRRQLEMILNKPGLKYKPVCNQVECHPYFNRSKLLDFCKSKDIVLVAYSALGSQRDKRWVDPNSPVLLEDPVLCALAKKHKRTPALIALRYQLQRGVVVLAKSYNEQRIRQNVQVFEFQLTAEDMKAIDGLDRNLHYFNSDSFASHPNYPYSDEY
Turning to B7, the binding entry was “binds”.

B8: Keratin, type I cytoskeletal 18 (protein, UniProt P05783 1-430)
chain: MSFTTRSTFSTNYRSLGSVQAPSYGARPVSSAASVYAGAGGSGSRISVSRSTSFRGGMGSGGLATGIAGGLAGMGGIQNEKETMQSLNDRLASYLDRVRSLETENRRLESKIREHLEKKGPQVRDWSHYFKIIEDLRAQIFANTVDNARIVLQIDNARLAADDFRVKYETELAMRQSVENDIHGLRKVIDDTNITRLQLETEIEALKEELLFMKKNHEEEVKGLQAQIASSGLTVEVDAPKSQDLAKIMADIRAQYDELARKNREELDKYWSQQIEESTTVVTTQSAEVGAAETTLTELRRTVQSLEIDLDSMRNLKASLENSLREVEARYALQMEQLNGILLHLESELAQTRAEGQRQAQEYEALLNIKVKLEAEIATYRRLLEDGEDFNLGDALDSSNSMQTIQKTTTRRIVDGKVVSETNDTKVLRH
Regarding B8, the binding result was “binds”.

B9: Malate dehydrogenase, mitochondrial (protein, UniProt P40926 25-338)
chain: AKVAVLGASGGIGQPLSLLLKNSPLVSRLTLYDIAHTPGVAADLSHIETKAAVKGYLGPEQLPDCLKGCDVVVIPAGVPRKPGMTRDDLFNTNATIVATLTAACAQHCPEAMICVIANPVNSTIPITAEVFKKHGVYNPNKIFGVTTLDIVRANTFVAELKGLDPARVNVPVIGGHAGKTIIPLISQCTPKVDFPQDQLTALTGRIQEAGTEVVKAKAGAGSATLSMAYAGARFVFSLVDAMNGKEGVVECSFVKSQETECTYFSTPLLLGKKGIEKNLGIGKVSSFEEKMISDAIPELKASIKKGEDFVKTLK
As to B9, the binding result was “binds”.

B10: Peroxiredoxin-1 (protein, UniProt Q06830 1-199)
chain: MSSGNAKIGHPAPNFKATAVMPDGQFKDISLSDYKGKYVVFFFYPLDFTFVCPTEIIAFSDRAEEFKKLNCQVIGASVDSHFCHLAWVNTPKKQGGLGPMNIPLVSDPKRTIAQDYGVLKADEGISFRGLFIIDDKGILRQITVNDLPVGRSVDETLRLVQAFQFTDKHGEVCPAGWKPGSDTIKPDVQKSKEYFSKQK
In the case of B10, the binding entry is recorded as “binds”.

B11: Heterogeneous nuclear ribonucleoprotein R, isoform 1 (protein, UniProt O43390 1-633)
chain: MANQVNGNAVQLKEEEEPMDTSSVTHTEHYKTLIEAGLPQKVAERLDEIFQTGLVAYVDLDERAIDALREFNEEGALSVLQQFKESDLSHVQNKSAFLCGVMKTYRQREKQGSKVQESTKGPDEAKIKALLERTGYTLDVTTGQRKYGGPPPDSVYSGVQPGIGTEVFVGKIPRDLYEDELVPLFEKAGPIWDLRLMMDPLSGQNRGYAFITFCGKEAAQEAVKLCDSYEIRPGKHLGVCISVANNRLFVGSIPKNKTKENILEEFSKVTEGLVDVILYHQPDDKKKNRGFCFLEYEDHKSAAQARRRLMSGKVKVWGNVVTVEWADPVEEPDPEVMAKVKVLFVRNLATTVTEEILEKSFSEFGKLERVKKLKDYAFVHFEDRGAAVKAMDEMNGKEIEGEEIEIVLAKPPDKKRKERQAARQASRSTAYEDYYYHPPPRMPPPIRGRGRGGGRGGYGYPPDYYGYEDYYDDYYGYDYHDYRGGYEDPYYGYDDGYAVRGRGGGRGGRGAPPPPRGRGAPPPRGRAGYSQRGAPLGPPRGSRGGRGGPAQQQRGRGSRGSRGNRGGNVGGKRKADGYNQPDSKRRQTNNQQNWGSQPIAQQPLQQGGDYSGNYGYNNDNQEFYQDTYGQQWK
For the molecule B11, the binding result is listed as “binds”.

B12: 3-hydroxyacyl-CoA dehydrogenase type-2, isoform 1 (protein, UniProt Q99714 1-261)
chain: MAAACRSVKGLVAVITGGASGLGLATAERLVGQGASAVLLDLPNSGGEAQAKKLGNNCVFAPADVTSEKDVQTALALAKGKFGRVDVAVNCAGIAVASKTYNLKKGQTHTLEDFQRVLDVNLMGTFNVIRLVAGEMGQNEPDQGGQRGVIINTASVAAFEGQVGQAAYSASKGGIVGMTLPIARDLAPIGIRVMTIAPGLFGTPLLTSLPEKVCNFLASQVPFPSRLGDPAEYAHLVQAIIENPFLNGEVIRLDGAIRMQP
For B12, the binding entry was “binds”.
